# Reference: patent US7662778B2, “Histone deacetylase inhibitor and process for producing the same” (Riken, priority 2003, dated 2010)
# Sequences of proteins named here, by UniProt entry; tags and fusion partners are left off. A change or cut given only in a name is not applied to a line headed by its entry.
# UniProt P56524: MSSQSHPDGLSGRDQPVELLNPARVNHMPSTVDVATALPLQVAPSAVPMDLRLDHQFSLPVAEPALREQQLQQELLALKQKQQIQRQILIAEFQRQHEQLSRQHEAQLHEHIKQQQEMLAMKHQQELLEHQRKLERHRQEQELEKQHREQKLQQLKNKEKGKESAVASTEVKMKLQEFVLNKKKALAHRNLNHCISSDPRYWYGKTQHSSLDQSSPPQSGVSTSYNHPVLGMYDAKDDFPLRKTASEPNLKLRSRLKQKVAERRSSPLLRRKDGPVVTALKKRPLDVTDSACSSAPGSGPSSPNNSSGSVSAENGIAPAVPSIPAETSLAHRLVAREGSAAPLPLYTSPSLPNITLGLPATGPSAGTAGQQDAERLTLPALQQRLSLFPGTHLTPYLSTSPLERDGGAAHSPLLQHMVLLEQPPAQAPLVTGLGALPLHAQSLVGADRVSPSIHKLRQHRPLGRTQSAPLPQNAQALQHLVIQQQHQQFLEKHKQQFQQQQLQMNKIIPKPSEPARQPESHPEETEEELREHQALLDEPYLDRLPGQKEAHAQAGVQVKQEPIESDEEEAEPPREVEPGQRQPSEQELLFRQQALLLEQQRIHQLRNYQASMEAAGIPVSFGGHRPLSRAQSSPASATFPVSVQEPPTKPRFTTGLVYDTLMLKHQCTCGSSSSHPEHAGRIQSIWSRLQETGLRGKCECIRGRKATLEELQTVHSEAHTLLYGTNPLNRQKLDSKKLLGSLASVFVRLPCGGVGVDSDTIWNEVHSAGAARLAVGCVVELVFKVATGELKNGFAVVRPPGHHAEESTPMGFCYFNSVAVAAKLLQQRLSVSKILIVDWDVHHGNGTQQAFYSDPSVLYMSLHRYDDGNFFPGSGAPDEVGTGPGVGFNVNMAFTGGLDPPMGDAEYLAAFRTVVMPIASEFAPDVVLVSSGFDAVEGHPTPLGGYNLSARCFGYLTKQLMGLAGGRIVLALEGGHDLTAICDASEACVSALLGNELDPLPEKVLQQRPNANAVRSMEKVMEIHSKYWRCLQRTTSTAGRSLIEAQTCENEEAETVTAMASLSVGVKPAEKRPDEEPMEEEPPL
# UniProt Q13547, whole entry: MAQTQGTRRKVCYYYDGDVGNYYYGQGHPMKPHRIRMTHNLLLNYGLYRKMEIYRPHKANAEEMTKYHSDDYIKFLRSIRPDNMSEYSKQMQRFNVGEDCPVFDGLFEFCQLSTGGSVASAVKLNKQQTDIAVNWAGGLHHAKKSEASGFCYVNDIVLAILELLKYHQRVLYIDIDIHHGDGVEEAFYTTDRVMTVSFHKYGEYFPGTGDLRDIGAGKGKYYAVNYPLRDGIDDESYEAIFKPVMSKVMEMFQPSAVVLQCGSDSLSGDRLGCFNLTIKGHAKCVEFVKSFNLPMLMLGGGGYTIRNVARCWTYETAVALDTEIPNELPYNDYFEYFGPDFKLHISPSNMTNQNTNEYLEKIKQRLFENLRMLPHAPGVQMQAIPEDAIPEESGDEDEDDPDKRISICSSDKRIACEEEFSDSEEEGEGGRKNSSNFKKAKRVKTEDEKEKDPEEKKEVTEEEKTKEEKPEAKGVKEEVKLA
# At least one structure is not confirmed: it was looked up by name or label, or the drawing left a doubt.
# Legend:
# Type in all cases: biochemical
# Details in all cases: Table 1; 37° C., 30 minutes
# human HDAC4 = molecular target: T1, human HDAC4 (Homo sapiens, UniProt P56524); assay: HDAC inhibitory activity in vitro (coumarin-labeled acetylated histone peptide), HDAC4
# T1 construct: FLAG; made in house; host or cells: 293T cells, transient transfection; anti-FLAG immunoprecipitation and FLAG peptide elution
# human HDAC1 = molecular target: T2, human HDAC1 (Homo sapiens, UniProt Q13547); assay: HDAC inhibitory activity in vitro (coumarin-labeled acetylated histone peptide), HDAC1
# T2 construct: FLAG; made in house; host or cells: 293T cells, transient transfection; anti-FLAG immunoprecipitation and FLAG peptide elution
# mouse HDAC6 = molecular target: T3, mouse HDAC6 (Mus musculus, UniProt Q9Z2V5); assay: HDAC inhibitory activity in vitro (coumarin-labeled acetylated histone peptide), HDAC6
# T3 construct: HA; made in house; host or cells: 293T cells, transient transfection; anti-HA immunoprecipitation and HA peptide elution
# T3 sequence (Q9Z2V5 1-1149): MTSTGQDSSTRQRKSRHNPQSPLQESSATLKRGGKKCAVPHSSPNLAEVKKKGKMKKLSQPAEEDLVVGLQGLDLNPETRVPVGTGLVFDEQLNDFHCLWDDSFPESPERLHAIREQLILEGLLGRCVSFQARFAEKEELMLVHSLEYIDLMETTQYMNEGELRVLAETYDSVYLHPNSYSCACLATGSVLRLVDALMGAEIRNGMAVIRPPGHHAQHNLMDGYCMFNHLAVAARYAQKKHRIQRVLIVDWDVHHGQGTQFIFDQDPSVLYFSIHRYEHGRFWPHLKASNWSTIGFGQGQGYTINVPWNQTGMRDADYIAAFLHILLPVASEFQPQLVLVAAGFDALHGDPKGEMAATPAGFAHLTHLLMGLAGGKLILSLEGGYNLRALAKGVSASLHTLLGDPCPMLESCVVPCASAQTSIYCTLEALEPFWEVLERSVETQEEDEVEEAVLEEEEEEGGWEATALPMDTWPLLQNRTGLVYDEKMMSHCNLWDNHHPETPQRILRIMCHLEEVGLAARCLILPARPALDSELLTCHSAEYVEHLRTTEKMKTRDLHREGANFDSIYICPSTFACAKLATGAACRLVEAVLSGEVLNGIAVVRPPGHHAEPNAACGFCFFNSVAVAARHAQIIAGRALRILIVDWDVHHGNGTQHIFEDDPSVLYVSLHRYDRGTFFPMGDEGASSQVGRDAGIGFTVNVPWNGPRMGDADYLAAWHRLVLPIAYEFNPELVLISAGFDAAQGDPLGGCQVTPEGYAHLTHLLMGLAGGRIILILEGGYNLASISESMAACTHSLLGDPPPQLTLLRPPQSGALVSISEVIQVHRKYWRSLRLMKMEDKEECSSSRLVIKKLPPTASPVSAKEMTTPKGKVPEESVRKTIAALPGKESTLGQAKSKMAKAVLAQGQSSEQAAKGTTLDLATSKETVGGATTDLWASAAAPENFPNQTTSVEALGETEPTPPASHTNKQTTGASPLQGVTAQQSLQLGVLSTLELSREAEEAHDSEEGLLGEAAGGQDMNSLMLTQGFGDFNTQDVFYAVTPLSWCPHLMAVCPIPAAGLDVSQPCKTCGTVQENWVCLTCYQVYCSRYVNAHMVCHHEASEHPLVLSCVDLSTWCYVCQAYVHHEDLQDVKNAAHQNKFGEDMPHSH
SMILES,IC50 (human HDAC4),IC50 (human HDAC1),IC50 (mouse HDAC6)
CC[C@H](C)[C@@H]1NC(=O)[C@@H](Cc2ccc(OC)cc2)NC(=O)[C@H](CCCCCS(C)(=O)=O)NC(=O)[C@H]2CCCN2C1=O [SO2Me],> 500 µM,> 500 µM,> 500 µM
CC[C@H](C)[C@@H]1NC(=O)[C@@H](Cc2ccc(OC)cc2)NC(=O)[C@H](CCCCCSC)NC(=O)[C@H]2CCCN2C1=O [SMe],> 500 µM,> 500 µM,> 500 µM
CC[C@H](C)[C@@H]1NC(=O)[C@@H](Cc2ccc(OC)cc2)NC(=O)[C@H](CCCCS(=O)(=O)CC(=O)C(F)(F)F)NC(=O)[C@H]2CCCN2C1=O [Stfk],–,> 500 µM,–
